Results taken from article PMC4646403.
No constants are given. Whether binding was seen depends on the method and setting. In cells and extracts the contact can be indirect. A result given as binding can be weak or reduced; the word gives no strength.

Sequences of proteins named here, by UniProt entry; tags and fusion partners are left off. A change or cut given only in a name is not applied to a line headed by its entry.
UniProt Q383P6: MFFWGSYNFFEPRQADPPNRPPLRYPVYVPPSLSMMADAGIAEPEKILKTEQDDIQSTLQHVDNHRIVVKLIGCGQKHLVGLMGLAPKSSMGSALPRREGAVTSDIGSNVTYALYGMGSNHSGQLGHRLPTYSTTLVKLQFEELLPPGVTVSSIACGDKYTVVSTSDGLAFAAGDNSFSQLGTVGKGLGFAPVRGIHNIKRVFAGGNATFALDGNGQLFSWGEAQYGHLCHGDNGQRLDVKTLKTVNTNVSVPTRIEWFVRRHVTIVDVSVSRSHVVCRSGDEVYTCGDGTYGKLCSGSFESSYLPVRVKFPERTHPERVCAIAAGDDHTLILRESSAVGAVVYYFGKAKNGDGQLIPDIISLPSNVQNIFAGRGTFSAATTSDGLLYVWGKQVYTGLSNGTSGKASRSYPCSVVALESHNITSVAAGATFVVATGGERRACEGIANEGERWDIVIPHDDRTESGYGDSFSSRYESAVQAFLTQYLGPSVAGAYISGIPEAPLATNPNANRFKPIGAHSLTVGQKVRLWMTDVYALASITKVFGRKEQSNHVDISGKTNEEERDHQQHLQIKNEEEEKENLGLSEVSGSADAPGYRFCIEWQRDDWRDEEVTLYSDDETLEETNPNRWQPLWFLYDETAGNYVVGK
UniProt Q57VV2: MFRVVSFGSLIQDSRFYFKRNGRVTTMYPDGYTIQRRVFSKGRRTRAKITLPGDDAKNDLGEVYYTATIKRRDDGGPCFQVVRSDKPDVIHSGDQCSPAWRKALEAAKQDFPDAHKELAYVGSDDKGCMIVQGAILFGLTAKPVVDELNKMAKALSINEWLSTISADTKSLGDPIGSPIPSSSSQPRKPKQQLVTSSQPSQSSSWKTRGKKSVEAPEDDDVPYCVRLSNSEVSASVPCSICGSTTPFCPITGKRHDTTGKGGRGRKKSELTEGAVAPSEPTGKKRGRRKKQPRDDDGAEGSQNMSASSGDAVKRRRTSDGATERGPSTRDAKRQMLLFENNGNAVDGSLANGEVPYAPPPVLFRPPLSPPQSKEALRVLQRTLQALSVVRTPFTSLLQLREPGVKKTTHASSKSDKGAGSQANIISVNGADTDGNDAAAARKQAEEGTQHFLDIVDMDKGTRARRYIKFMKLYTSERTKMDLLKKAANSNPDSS
UniProt Q585S8: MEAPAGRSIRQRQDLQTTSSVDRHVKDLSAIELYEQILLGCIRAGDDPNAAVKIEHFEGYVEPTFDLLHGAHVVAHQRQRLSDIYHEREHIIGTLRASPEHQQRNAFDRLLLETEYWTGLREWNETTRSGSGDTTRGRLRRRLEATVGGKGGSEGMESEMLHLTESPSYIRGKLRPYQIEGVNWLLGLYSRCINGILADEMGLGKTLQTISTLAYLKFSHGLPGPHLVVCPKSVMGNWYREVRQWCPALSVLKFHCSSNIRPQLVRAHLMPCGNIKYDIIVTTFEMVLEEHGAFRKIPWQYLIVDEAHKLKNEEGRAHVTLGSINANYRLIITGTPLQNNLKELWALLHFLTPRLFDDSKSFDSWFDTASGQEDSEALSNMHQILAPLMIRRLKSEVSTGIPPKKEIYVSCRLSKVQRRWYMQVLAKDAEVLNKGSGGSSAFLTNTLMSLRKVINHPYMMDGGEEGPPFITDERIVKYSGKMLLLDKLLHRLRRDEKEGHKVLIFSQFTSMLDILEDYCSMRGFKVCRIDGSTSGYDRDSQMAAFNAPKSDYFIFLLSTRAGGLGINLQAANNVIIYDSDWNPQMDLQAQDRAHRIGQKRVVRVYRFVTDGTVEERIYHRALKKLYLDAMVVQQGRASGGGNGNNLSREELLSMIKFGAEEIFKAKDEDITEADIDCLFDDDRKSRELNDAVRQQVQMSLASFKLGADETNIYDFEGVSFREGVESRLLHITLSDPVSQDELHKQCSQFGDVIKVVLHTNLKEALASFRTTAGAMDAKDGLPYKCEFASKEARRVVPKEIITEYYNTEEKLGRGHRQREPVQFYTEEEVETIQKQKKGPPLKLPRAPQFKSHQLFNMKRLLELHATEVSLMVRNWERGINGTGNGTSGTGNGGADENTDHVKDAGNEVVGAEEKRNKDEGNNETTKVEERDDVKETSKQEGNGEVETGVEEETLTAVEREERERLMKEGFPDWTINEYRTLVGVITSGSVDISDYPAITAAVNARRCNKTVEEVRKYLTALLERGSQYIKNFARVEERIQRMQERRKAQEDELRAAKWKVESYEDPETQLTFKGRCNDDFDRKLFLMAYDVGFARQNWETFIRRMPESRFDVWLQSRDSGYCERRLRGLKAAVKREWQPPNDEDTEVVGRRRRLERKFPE
UniProt Q38B59: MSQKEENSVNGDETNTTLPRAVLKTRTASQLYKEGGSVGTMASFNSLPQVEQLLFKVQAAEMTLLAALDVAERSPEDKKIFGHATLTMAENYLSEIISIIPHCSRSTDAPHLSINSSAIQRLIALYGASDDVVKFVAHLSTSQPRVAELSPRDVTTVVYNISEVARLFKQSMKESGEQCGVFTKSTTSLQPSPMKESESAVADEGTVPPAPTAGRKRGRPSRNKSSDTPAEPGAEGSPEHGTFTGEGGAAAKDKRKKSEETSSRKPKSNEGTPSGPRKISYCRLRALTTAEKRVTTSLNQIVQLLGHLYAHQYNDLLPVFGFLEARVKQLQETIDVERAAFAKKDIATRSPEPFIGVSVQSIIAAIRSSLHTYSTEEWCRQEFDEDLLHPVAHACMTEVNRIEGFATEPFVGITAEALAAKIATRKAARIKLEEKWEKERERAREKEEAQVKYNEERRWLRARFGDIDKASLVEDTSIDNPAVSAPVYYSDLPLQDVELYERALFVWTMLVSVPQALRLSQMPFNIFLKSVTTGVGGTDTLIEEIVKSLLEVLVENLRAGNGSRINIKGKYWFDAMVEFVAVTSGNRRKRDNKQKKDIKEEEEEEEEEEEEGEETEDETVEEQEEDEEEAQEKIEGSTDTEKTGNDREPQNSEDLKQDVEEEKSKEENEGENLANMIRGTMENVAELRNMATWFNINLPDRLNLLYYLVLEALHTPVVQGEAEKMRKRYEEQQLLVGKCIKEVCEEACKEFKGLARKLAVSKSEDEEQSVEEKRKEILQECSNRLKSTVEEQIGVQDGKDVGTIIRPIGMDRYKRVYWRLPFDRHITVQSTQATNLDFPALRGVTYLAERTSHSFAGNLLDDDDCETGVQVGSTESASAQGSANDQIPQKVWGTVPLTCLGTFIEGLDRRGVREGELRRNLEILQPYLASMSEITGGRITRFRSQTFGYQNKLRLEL

How the values were obtained:
[1] = target: RCCP tagged at the C terminus with a triple HA epitope (Trypanosoma brucei brucei 427) (UniProt Q383P6); test: co-IP; procyclic form T. brucei extracts with 0.1% Nonidet P-40; monoclonal anti-Myc or anti-HA on Sepharose CL-4B columns, 2 h at 4 °C, 150 mM KCl, HEPES-KOH pH 7.7; Western blot
[2] = target: RCCP tagged at the C terminus with a triple HA epitope (Trypanosoma brucei brucei 427) (UniProt Q383P6); test: co-IP; bloodstream form T. brucei 221GP1(VO2+) extracts with 0.1% Nonidet P-40; monoclonal anti-Myc or anti-HA on Sepharose CL-4B columns, 2 h at 4 °C, 150 mM KCl, HEPES-KOH pH 7.7; Western blot
[3] = target: FYRP tagged at the C terminus with a triple Myc epitope (Trypanosoma brucei brucei 427) (UniProt Q57VV2); test: co-IP; procyclic form T. brucei extracts with 0.1% Nonidet P-40; monoclonal anti-Myc or anti-HA on Sepharose CL-4B columns, 2 h at 4 °C, 150 mM KCl, HEPES-KOH pH 7.7; Western blot
[4] = target: TbISWI tagged at the C terminus with a triple Myc epitope (Trypanosoma brucei brucei 427) (UniProt Q585S8); test: as above
[5] = target: FYRP tagged at the C terminus with a triple Myc epitope (Trypanosoma brucei brucei 427) (UniProt Q57VV2); test: co-IP; bloodstream form T. brucei 221GP1(VO2+) extracts with 0.1% Nonidet P-40; monoclonal anti-Myc or anti-HA on Sepharose CL-4B columns, 2 h at 4 °C, 150 mM KCl, HEPES-KOH pH 7.7; Western blot
[6] = target: NLP tagged at the C terminus with a triple HA epitope (Trypanosoma brucei brucei 427) (UniProt Q38B59); test: co-IP; procyclic form T. brucei extracts with 0.1% Nonidet P-40; monoclonal anti-Myc or anti-HA on Sepharose CL-4B columns, 2 h at 4 °C, 150 mM KCl, HEPES-KOH pH 7.7; Western blot

Row | binding [1] | binding [2] | Substance | other results
1 | binds | binds | FYRP tagged at the C terminus with a triple Myc epitope (from UniProt Q57VV2) | 
2 |  |  | RCCP tagged at the C terminus with a triple HA epitope (from UniProt Q383P6) | binding [3]: binds; binding [4]: binds; binding [5]: binds
3 |  |  | RCCP tagged at the C terminus with a triple Myc epitope (from UniProt Q383P6) | binding [6]: binds
4 |  | binds | TbISWI (untagged, endogenous) (from UniProt Q585S8) | 
5 | binds |  | TbISWI tagged at the C terminus with a triple Myc epitope (from UniProt Q585S8) | 
